From paper PMC12667544

Chains of the proteins cited; added tags and fusions are not shown. Lines headed by an entry give the natural chain unless they say otherwise; changes in a name come on top.
UniProt Q61321: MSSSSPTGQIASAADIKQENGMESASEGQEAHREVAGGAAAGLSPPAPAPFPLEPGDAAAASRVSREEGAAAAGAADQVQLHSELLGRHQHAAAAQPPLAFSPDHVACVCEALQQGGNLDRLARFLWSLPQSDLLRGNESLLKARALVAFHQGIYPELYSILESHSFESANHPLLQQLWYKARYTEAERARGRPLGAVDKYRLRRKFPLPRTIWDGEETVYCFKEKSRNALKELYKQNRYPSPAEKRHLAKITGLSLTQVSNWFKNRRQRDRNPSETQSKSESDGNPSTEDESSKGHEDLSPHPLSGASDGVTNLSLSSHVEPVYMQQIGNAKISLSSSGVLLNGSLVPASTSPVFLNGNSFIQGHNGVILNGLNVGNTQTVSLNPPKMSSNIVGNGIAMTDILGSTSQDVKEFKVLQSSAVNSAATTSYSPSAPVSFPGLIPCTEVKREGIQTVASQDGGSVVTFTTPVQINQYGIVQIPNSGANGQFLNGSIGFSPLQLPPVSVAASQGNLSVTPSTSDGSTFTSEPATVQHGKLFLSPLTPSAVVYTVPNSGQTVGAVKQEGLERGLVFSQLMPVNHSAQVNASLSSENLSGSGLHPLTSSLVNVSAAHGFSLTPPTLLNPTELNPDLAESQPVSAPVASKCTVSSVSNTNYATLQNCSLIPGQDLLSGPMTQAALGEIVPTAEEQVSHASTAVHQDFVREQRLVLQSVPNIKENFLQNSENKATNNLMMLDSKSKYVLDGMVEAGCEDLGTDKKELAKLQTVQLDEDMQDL

How the values were obtained:
His-SIX4 (Mus musculus) [1] = biological target: His-SIX4 (Mus musculus) (UniProt Q61321); test: competition EMSA; settings: unlabeled, EMSA: 1 uM labeled probe, 0.5-4 ug His-SIX4 in 10 uL (Beyotime kit buffer, salt not stated), 25 C, 20 min, 4% native PAGE, 0.5x TBE pH 8.0, recombinant protein, protein details: His
His-SIX4 (Mus musculus) [2] = biological target: His-SIX4 (Mus musculus) (UniProt Q61321); test: EMSA; settings: EMSA: 1 uM labeled probe, 0.5-4 ug His-SIX4 in 10 uL (Beyotime kit buffer, salt not stated), 25 C, 20 min; 4% native PAGE, 0.5x TBE pH 8.0; recombinant protein; protein details: His; label: 5' biotin

GAGACCAGGCTAGTTGCAGCCTCGGGTCTGGTTTCCCTCTAATGCCTAAT (double strand) [Rps27l-Cold (unlabeled competitor)]
binding result (His-SIX4 (Mus musculus) [1]; added before labeled N1, signal disappeared): binds

GAGACCAGGCTAGTTGCAGCCTCGATGACTACCGACCTCTAATGCCTAAT (double strand) [Rps27l-Mut (unlabeled mutant competitor)]
binding result (His-SIX4 (Mus musculus) [1]; added before labeled N1, signal decreased only): binds more weakly

GAGACCAGGCTAGTTGCAGCCTCGGGTCTGGTTTCCCTCTAATGCCTAAT (double strand) [Rps27l-biotin (wild-type probe)]
binding result (His-SIX4 (Mus musculus) [2]): binds

Construct, isoform or probe ends are uncertain for at least one entry. For part of these data: Weaker means in comparison with the reference protein, sequence or condition of that experiment.
